Our source for the binding values is publication PMC6687534.

The chains behind the UniProt entries cited, without tags or fusion partners.
UniProt Q9UKT9: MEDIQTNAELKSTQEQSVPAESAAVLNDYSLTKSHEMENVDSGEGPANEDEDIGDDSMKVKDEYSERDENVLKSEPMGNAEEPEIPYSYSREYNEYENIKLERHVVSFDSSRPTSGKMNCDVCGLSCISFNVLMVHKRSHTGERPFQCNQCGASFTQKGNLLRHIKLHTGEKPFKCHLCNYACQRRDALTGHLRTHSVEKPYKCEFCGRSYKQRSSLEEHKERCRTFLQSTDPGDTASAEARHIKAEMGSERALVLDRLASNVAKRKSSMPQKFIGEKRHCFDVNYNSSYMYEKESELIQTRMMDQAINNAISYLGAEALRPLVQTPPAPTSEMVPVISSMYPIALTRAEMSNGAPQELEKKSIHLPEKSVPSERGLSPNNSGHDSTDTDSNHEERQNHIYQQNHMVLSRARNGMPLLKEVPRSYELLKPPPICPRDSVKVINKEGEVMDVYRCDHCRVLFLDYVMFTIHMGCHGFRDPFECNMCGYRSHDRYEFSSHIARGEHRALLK

The target in assay [1] is FLAG-tagged RUNX1 with deletion of the ID (UniProt Q01196). Description: co-IP; anti-FLAG gel on lysates of transfected HEK293T cells (in part stably expressing IKZF3 or IKZF1); NP-40 buffer, 4 °C overnight; immunoblot; in Fig. 4a-d cells treated with DMSO or increasing amounts (or 1 μM) of the RUNX inhibitor AI-10-104.
The target in assay [2] is FLAG-tagged RUNX1 with deletion of the AD (UniProt Q01196). Described as above.

These are yes or no findings as the source states them, for the method shown. Binding seen in cells or lysates may run through a third protein. Binding can be weak; no strength is given.

As to “IKZF3 stably expressed in HEK293T cells (from UniProt Q9UKT9 1-509)”, the binding result in assay [1] and in assay [2] was “binds” in each case.
